Experimental data: patent publication US20160046678A1 (ZYNGENIA, published 2016)
Results are given in words; binding and its absence hold for the method and conditions named. Some binding calls cover weakened binding; strength is not graded here.

Chains of the proteins cited; added tags and fusions are not shown. Residues count along the entry.
UniProt P08069, residues 31-932: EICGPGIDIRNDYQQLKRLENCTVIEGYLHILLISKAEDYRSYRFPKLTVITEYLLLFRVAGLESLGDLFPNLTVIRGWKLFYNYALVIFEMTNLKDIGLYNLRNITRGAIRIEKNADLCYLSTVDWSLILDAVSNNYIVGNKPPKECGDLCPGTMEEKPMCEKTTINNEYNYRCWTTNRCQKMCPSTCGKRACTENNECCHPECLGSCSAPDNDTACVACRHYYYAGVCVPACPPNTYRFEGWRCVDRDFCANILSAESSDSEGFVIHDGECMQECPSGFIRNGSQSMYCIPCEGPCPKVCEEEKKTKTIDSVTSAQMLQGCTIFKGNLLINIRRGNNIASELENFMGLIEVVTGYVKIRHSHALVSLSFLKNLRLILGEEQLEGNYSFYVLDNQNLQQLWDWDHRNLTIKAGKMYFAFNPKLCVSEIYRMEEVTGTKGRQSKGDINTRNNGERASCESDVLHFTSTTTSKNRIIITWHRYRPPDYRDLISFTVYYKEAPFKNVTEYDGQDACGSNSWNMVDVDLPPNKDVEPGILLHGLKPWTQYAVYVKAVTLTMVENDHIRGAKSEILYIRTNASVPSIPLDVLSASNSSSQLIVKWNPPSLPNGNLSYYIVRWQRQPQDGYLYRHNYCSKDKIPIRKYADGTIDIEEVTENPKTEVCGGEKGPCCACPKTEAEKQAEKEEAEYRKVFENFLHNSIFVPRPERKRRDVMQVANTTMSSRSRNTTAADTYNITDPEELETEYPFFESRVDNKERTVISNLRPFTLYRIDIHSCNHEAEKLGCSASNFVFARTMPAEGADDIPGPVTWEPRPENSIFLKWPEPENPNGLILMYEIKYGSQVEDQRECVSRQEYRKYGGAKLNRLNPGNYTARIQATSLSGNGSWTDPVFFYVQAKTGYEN

target: IGF1R (UniProt P08069); assay: MRD identification, Example 48

Binder	binding
PPLLCLEFHELCFHIE [IGF323]	binds
IHPLCKEFPELCFDVD [IGF319]	binds
ASRLCMEFPELCFDRK [IGF310]	binds
DDALCAEFNELCFEVT [IGF313]	binds
AHRLCQEFVELCFGET [IGF297]	binds
SHNLCLEFVELCFGDV [IGF322]	binds
IHPLCLEFTELCFHEV [IGF316]	binds
IPPLCLEFQELCFGWD [IGF312]	binds
IPALCLEFSELCFSTS [IGF327]	binds
VPRLCYEFPELCFHKQ [IGF305]	binds
HPRLCLEFSELCFDEM [IGF326]	binds
KPPLCEEFHELCFDLT [IGF301]	binds
APGLCIEFRELCFDEK [IGF292]	binds
VPLLCFEFPELCFGYQ [IGF294]	binds
APPLCIEFEELCFGFL [IGF314]	binds
VPSLCIEFSELCFDSP [IGF295]	binds
AHVLCLEFHELCFDMG [IGF324]	binds
RHSLCIEFPELCFDEY [IGF308]	binds

Binder	binding
GPLLCAEFVELCFGDD [IGF320]	binds
LHFLCVEFVELCFDEA [IGF304]	binds
YYALCAEFQELCFDEH [IGF293]	binds
PHKLCLEFRELCFDEL [IGF303]	binds
DYALCLEFRELCFGMN [IGF296]	binds
QEPLCVEFRELCFNED [IGF317]	binds
RTDLCMEFYELCFHSD [IGF300]	binds
PHPLCLEFEELCFTER [IGF306]	binds
IPDLCREFEELCFGSK [IGF318]	binds
YPPLCLEFPELCFWNH [IGF321]	binds
IPQLCLEFSELCFGMT [IGF299]	binds
HPALCVEFVELCFGHE [IGF311]	binds
AGRLCAEFHELCFGTN [IGF309]	binds
SHPLCLEFHELCFTDA [IGF315]	binds
AARLCSEFPELCFHAS [IGF307]	binds
RPLLCYEFSELCFDIT [IGF325]	binds
PHFLCMEFPVLCFNDS [IGF298]	binds

Next, values leading:

binding	Binder
binds	APSLCLEFIELCFDNM [IGF328]
binds	VHPLCLEFAELCFVNY [IGF330]
binds	EERLCKEFPELCFMMT [IGF335]
binds	TPSLCREFTELCFDSD [IGF336]
binds	SSSLCLEFSELCFHDD [IGF340]
binds	EHPLCREFSELCFGMG [IGF339]
binds	IPLLCLEFPVLCFENE [IGF343]
binds	AMRLCNEFHELCFGVV [IGF334]
binds	PHPLCREFPVLCFDDT [IGF329]
binds	PALLCQEFAELCFDMP [IGF345]
binds	AGALCKEFPILCFTME [IGF338]
binds	APLLCLEFPELCFGWD [IGF344]
binds	ALRLCNEFPELCFGGT [IGF341]
binds	VPSLCMEFPELCFTTE [IGF331]
binds	VPLLCLEFAELCFHVE [IGF332]
binds	VHPLCMEFTELCFHLR [IGF337]
